Experimental data taken from paper doi:10.1101/2023.10.26.564194 (bioRxiv, 2023).
Results are given in words; binding and its absence hold for the method and conditions named. Binding seen in cells or lysates may run through a third protein. A result given as binding can be weak or reduced; the word gives no strength.

Target: T1, nuclear factor erythroid 2-related factor 2 (NRF2), endogenous (human (endogenous in MDA-MB-231, HCT116, MCF7)) (UniProt Q16236)
T1 sequence: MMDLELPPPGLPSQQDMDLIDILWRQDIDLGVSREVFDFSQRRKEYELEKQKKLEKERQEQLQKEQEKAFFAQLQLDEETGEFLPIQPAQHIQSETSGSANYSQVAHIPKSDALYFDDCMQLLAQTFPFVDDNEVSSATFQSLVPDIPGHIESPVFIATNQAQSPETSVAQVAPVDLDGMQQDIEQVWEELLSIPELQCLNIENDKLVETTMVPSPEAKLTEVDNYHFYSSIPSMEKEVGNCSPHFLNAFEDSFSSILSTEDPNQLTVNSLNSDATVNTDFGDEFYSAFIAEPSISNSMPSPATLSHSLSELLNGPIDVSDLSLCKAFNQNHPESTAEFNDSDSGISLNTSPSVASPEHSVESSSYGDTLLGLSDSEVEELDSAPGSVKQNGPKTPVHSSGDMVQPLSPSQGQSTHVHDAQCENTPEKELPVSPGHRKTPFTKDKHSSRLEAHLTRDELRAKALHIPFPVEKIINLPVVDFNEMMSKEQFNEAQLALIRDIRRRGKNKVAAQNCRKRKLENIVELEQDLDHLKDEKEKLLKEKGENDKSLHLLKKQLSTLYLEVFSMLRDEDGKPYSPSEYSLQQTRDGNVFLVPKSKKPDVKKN
Assay: co-IP

binding: binds weakly
Substance: HSP40, endogenous (human (endogenous in MDA-MB-231, MCF7))
